Experimental data reported in the supplement of paper PMC12067093, “Discovery and optimisation of a covalent ligand for TRIM25 and its application to targeted protein ubiquitination” (Chemical Science, 2025).
The list shows a part of the results.

Protein sequences, listed by entry. Tags and fused reporters are not part of them. Lines headed by an entry give the natural chain unless they say otherwise; changes in a name come on top.
UniProt Q7Z2Z2: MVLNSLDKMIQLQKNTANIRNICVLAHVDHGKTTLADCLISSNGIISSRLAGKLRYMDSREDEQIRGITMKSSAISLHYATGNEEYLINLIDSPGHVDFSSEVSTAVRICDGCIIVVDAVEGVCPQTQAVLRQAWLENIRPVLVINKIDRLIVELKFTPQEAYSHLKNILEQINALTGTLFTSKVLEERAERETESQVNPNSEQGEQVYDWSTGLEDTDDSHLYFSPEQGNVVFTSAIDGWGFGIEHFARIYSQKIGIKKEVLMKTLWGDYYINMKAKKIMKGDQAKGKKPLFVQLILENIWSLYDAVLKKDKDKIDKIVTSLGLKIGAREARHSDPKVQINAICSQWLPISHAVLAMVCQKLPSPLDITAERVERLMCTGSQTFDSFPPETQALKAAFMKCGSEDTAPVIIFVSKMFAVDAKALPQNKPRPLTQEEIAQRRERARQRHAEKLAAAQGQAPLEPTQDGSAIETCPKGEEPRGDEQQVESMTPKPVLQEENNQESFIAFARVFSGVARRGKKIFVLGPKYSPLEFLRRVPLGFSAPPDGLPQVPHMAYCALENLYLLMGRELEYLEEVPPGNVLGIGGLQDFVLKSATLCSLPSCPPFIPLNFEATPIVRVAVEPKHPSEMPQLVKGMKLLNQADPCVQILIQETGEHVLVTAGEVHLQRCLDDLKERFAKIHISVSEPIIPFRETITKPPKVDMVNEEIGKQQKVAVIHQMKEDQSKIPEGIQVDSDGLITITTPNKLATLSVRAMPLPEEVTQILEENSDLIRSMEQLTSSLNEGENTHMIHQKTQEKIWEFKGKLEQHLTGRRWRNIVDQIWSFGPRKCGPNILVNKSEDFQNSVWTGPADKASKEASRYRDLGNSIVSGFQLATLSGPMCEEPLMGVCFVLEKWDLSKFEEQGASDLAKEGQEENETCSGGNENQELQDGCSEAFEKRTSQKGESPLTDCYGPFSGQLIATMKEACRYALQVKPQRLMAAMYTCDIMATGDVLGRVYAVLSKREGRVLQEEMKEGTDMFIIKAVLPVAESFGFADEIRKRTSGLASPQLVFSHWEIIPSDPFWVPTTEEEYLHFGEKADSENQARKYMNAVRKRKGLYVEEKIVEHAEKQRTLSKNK
UniProt Q08426: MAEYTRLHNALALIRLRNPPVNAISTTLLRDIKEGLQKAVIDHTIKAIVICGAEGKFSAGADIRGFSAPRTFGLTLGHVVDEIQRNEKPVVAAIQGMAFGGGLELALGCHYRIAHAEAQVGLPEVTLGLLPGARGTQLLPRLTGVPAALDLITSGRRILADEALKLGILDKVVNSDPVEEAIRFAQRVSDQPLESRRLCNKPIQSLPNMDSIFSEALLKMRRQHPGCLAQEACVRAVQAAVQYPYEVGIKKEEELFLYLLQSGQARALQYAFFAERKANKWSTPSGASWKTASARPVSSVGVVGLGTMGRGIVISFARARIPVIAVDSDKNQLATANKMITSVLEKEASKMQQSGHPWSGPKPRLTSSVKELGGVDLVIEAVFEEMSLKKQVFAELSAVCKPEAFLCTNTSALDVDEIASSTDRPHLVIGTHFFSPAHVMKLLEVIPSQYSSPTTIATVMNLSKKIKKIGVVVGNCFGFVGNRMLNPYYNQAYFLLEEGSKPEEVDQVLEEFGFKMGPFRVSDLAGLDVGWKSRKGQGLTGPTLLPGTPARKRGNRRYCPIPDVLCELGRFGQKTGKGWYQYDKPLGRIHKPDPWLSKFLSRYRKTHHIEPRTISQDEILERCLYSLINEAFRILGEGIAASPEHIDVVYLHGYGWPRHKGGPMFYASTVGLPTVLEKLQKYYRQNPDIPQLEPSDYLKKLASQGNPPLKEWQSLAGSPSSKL
UniProt P20042, whole entry, looked up: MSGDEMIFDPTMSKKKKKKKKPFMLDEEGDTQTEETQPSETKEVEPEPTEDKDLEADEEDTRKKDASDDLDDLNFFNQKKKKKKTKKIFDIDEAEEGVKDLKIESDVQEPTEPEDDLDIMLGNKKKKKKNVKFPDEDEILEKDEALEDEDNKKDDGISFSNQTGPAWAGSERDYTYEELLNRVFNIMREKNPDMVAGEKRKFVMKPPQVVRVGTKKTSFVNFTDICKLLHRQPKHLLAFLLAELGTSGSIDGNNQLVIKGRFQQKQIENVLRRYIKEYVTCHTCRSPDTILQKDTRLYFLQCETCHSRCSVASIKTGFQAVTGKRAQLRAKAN
UniProt Q96C19: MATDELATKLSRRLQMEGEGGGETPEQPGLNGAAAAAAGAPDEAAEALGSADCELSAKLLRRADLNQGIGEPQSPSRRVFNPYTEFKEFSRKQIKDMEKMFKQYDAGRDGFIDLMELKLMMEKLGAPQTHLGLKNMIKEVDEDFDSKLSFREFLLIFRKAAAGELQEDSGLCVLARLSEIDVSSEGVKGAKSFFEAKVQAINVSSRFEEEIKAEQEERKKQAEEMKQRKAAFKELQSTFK
UniProt P57772: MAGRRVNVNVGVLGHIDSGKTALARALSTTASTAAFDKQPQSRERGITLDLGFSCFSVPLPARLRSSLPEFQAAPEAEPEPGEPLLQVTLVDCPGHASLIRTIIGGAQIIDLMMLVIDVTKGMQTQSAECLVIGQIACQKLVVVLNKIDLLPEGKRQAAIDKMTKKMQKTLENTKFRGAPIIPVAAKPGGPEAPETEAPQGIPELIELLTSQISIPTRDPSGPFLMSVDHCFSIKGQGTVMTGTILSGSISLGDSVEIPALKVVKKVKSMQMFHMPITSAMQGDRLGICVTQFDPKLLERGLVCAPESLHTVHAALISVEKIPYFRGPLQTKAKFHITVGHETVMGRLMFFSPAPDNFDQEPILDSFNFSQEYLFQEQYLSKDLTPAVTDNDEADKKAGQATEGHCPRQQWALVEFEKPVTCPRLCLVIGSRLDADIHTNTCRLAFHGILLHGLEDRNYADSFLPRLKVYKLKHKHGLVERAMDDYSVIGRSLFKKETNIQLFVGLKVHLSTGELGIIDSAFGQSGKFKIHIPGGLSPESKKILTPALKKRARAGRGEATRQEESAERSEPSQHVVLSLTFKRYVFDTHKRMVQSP
UniProt Q9UHF1: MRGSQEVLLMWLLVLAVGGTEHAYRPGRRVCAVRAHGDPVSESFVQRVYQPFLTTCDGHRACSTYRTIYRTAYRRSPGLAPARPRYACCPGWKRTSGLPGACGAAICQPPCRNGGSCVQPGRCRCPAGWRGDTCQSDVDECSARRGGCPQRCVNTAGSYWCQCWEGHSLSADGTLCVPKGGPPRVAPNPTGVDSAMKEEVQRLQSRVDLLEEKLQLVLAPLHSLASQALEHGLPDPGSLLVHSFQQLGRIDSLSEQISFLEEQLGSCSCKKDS
UniProt Q9BQ95: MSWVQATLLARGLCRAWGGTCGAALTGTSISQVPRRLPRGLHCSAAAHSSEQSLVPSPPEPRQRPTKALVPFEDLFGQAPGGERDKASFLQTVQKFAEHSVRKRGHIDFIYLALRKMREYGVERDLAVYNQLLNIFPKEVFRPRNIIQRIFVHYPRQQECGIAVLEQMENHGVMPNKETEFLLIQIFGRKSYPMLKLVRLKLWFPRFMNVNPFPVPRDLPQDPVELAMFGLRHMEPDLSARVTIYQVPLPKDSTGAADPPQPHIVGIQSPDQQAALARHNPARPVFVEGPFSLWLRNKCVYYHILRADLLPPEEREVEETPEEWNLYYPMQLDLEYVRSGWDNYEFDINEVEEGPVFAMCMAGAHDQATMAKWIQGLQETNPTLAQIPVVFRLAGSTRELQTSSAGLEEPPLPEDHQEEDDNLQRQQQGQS
UniProt Q16610: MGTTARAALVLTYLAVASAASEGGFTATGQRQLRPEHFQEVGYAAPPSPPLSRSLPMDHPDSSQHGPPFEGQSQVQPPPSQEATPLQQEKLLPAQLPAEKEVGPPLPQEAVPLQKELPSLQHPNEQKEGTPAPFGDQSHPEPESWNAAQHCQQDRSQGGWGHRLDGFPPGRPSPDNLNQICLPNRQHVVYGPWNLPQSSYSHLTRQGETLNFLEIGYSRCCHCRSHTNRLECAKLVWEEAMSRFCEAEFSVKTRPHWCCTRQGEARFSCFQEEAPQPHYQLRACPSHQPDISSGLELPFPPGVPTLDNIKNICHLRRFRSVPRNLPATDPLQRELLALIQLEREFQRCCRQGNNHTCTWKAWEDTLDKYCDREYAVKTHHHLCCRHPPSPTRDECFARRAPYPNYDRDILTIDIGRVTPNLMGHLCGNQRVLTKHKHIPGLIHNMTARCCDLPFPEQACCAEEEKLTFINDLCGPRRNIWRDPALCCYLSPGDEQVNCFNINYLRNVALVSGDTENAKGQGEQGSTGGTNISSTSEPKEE
UniProt Q14232, whole entry, looked up: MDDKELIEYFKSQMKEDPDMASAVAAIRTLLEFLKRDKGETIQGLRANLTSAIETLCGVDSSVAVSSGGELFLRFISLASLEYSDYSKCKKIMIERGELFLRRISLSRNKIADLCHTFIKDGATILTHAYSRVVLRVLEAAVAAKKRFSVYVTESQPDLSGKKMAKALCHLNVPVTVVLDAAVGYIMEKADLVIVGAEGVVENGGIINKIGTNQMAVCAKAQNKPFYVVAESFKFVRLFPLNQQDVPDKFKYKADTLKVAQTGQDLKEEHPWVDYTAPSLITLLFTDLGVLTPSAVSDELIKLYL
UniProt Q5VYK3, whole entry, looked up: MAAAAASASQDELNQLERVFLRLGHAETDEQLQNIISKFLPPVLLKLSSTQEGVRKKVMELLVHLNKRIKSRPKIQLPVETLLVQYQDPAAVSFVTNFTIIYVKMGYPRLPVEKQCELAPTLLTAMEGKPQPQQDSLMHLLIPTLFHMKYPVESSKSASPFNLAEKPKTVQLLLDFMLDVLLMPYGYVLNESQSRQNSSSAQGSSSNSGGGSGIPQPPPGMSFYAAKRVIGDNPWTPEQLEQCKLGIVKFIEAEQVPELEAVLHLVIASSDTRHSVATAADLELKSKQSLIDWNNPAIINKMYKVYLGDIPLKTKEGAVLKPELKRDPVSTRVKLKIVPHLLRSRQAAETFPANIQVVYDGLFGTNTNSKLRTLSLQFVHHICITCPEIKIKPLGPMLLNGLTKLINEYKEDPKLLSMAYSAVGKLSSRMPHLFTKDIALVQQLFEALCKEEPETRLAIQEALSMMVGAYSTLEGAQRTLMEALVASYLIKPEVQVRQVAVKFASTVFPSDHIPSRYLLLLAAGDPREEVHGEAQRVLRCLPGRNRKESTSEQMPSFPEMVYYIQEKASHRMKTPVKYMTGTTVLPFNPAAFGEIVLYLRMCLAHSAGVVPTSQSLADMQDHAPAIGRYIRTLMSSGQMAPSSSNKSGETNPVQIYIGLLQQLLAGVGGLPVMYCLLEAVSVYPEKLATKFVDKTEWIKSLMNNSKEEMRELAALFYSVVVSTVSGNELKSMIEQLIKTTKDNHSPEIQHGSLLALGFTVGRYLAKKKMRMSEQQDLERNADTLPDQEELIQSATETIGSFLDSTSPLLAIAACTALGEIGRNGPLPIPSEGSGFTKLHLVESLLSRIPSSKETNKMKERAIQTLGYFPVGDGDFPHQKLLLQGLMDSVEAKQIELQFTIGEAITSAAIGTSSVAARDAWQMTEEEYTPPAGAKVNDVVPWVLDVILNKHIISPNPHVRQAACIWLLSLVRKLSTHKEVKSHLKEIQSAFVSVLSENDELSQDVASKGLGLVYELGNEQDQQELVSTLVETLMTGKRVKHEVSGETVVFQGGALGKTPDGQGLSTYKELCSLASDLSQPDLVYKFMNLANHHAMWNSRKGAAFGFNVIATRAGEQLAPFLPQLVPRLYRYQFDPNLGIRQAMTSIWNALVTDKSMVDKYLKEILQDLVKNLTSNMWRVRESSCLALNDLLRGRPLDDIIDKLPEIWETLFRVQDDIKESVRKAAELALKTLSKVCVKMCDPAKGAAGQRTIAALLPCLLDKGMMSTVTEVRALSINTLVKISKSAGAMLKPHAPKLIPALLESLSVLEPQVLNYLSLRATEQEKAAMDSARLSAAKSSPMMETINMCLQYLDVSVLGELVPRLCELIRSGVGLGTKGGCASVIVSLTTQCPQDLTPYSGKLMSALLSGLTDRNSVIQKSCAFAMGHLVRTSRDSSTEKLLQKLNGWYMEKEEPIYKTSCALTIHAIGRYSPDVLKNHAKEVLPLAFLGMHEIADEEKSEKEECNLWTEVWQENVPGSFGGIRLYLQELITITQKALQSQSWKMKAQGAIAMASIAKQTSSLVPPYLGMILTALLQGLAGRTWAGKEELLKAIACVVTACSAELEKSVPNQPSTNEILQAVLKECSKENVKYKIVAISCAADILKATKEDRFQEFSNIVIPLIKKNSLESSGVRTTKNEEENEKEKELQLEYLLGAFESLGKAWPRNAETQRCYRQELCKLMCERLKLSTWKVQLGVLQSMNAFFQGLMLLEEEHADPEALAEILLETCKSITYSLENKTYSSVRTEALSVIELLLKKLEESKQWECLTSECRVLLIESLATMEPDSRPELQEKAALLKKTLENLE
UniProt O43324: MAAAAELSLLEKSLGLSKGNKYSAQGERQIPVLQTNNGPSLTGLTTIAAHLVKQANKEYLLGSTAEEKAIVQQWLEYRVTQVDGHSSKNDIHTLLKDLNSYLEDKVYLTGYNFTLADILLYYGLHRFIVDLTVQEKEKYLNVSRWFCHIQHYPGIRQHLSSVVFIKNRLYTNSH

Compound: Cc1cc(ccc1-c1ccccc1)C(=O)N1CCCN(CC1)C(=O)CCl [compound 10]
Assay: probe-labelled cysteine peptide fold change vs DMSO (competition) (log2 fold change); higher = less target engagement (more negative = stronger competition)
Settings: THP-1, incubation time: 4 h
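Also: competitive profiling in live THP-1 cells: cysteine peptides tagged with an iodoacetamide desthiobiotin (IA-DTB) probe, intensity after compound treatment relative to DMSO-treated cells.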

Row | Target | probe-labelled cysteine peptide fold change (10 µM) | probe-labelled cysteine peptide fold change (50 µM)
1 | EEF1D_P29692_217_SSILLDVKPWDDETDMAQLEACVR (UniProt P29692) | 0.162 | 0.208
2 | ECI2_O75521_282_ATFHTPFSHLGQSPEGCSSYTFPK (UniProt O75521) | 0.146 | 0.311
3 | EDC4_Q6P2E9_299_GHSTCLSEGALSPDGTVLATASHDGYVK (UniProt Q6P2E9) | -0.0854 | -0.477
4 | EEF1AKMT2_Q5JPI9_150_LKVEDFLNLSTQLSGFHICIDK (UniProt Q5JPI9) | 0.128 | -0.101
5 | EFL1_Q7Z2Z2_124_ICDGCIIVVDAVEGVCPQTQAVLR (UniProt Q7Z2Z2) | -0.526 | -0.04
6 | EIF2AK2_P19525_369_CLFIQMEFCDK (UniProt P19525) | 0.0225 | 0.0844
7 | ECT2_Q9H8V3_796_HVANTICK (UniProt Q9H8V3) | 0.0863 | -0.0487
8 | EHHADH_Q08426_559_RYCPIPDVLCELGR (UniProt Q08426) | -0.121 | 0.154
9 | EIF2S2_P20042_284_EYVTCHTCR (UniProt P20042) | 0.0206 | 0.0526
10 | EEF2_P13639_290_TFCQLILDPIFK (UniProt P13639) | -0.136 | -0.00556
11 | EFHD2_Q96C19_172_AAAGELQEDSGLCVLAR (UniProt Q96C19) | -0.176 | -0.498
12 | EEFSEC_P57772_289_LGICVTQFDPK (UniProt P57772) | 0.134 | 0.0218
13 | EGFL7_Q9UHF1_267+269_IDSLSEQISFLEEQLGSCSCK (UniProt Q9UHF1) | -0.134 | -0.716
14 | EFTUD2_Q15029_144_TCFVDCLIEQTHPEIR (UniProt Q15029) | -0.166 | 0.0774
15 | EHD4_Q9H223_141_FMCSQLPNQVLK (UniProt Q9H223) | -0.098 | 0.00663
16 | ECSIT_Q9BQ95_299_CVYYHILR (UniProt Q9BQ95) | -0.0107 | 0.0148
17 | EIF3A_Q14152_58_YLELCVDLRK (UniProt Q14152) | -0.0828 | -0.139
18 | EFEMP1_Q12805_70_CVNHYGGYLCLPK (UniProt Q12805) | -0.483 | -0.253
19 | EFL1_Q7Z2Z2_953_GESPLTDCYGPFSGQLIATMK (UniProt Q7Z2Z2) | -0.327 | 0.0206

Row | Target | probe-labelled cysteine peptide fold change (10 µM) | probe-labelled cysteine peptide fold change (50 µM)
20 | EEF2_P13639_651_KIWCFGPDGTGPNILTDITK (UniProt P13639) | -0.124 | -0.567
21 | EEF1A2_Q05639_411_SGDAAIVEMVPGKPMCVESFSQYPPLGR (UniProt Q05639) | -0.261 | -0.239
22 | EEF1A1_P68104_363+370_NDPPMEAAGFTAQVIILNHPGQISAGYAPVLDCHTAHIACK (UniProt P68104) | -0.143 | -0.158
23 | EIF2S2_P20042_302_LYFLQCETCHSR (UniProt P20042) | 0.0251 | 0.074
24 | EIF3B_P55884_384_FSHQGVQLIDFSPCER (UniProt P55884) | 0.0196 | -0.284
25 | EEF2_P13639_41_STLTDSLVCK (UniProt P13639) | -0.117 | -0.198
26 | EIF1AY_O14602_51_LEALCFDGVKR (UniProt O14602) | 0.0523 | -0.249
27 | EHMT2_Q96KQ7_1170_YFTCQCGSEK (UniProt Q96KQ7) | 0.269 | 0.49
28 | ECM1_Q16610_450_CCDLPFPEQACCAEEEK (UniProt Q16610) | -0.221 | 0.0818
29 | EIF2B1_Q14232_218_IGTNQMAVCAK (UniProt Q14232) | -0.148 | -0.133
30 | EEF2K_O00418_213_QVDIMQMCIIELK (UniProt O00418) | 0.0486 | 0.0302
31 | ECM1_Q16610_426_VTPNLMGHLCGNQR (UniProt Q16610) | -0.117 | -0.0573
32 | ECPAS_Q5VYK3_1420_SCAFAMGHLVR (UniProt Q5VYK3) | 0.0125 | 0.151
33 | EEF1E1_O43324_147_WFCHIQHYPGIR (UniProt O43324) | 0.0712 | 0.339
34 | ECPAS_Q5VYK3_1638_IVAISCAADILK (UniProt Q5VYK3) | 0.257 | 0.122
35 | EFTUD2_Q15029_674_CFAETPNK (UniProt Q15029) | -0.163 | 0.406
36 | EHMT2_Q96KQ7_1098_DGEVYCIDAR (UniProt Q96KQ7) | 0.225 | 0.000564
37 | EHHADH_Q08426_227+233_QHPGCLAQEACVR (UniProt Q08426) | 0.185 | 0.478
38 | ECPAS_Q5VYK3_1183_ESSCLALNDLLR (UniProt Q5VYK3) | -0.235 | 0.0786

From no. 10 up to 16, as listed above:
Row | Target | probe-labelled cysteine peptide fold change (10 µM) | probe-labelled cysteine peptide fold change (50 µM)
10 | EEF2_P13639_290_TFCQLILDPIFK (UniProt P13639) | -0.136 | -0.00556
11 | EFHD2_Q96C19_172_AAAGELQEDSGLCVLAR (UniProt Q96C19) | -0.176 | -0.498
12 | EEFSEC_P57772_289_LGICVTQFDPK (UniProt P57772) | 0.134 | 0.0218
13 | EGFL7_Q9UHF1_267+269_IDSLSEQISFLEEQLGSCSCK (UniProt Q9UHF1) | -0.134 | -0.716
14 | EFTUD2_Q15029_144_TCFVDCLIEQTHPEIR (UniProt Q15029) | -0.166 | 0.0774
15 | EHD4_Q9H223_141_FMCSQLPNQVLK (UniProt Q9H223) | -0.098 | 0.00663
16 | ECSIT_Q9BQ95_299_CVYYHILR (UniProt Q9BQ95) | -0.0107 | 0.0148
